# PubChem BioAssay (Tox21)
# Several values for one entry are separate records, joined by “and”; a condition that tells them apart may be missing. Identical values can stand only once. This list holds what a sample rich in hits left over. Inconclusive results are not listed. Activity calls are given as the source filed them. Unless noted, calls follow the shape of the dose curve; as a rule, active = well fitted curve in the direction sought with a large enough effect in the repeat runs; inconclusive = weak or mixed curves; inactive = no such curve, though single readings can be large; an effect the other way counts as inactive or inconclusive.
# Test: qHTS assay to identify small molecule agonists of the endoplasmic reticulum stress response signaling pathway - cell viability counter screen (AID 1159517; calls by dose curve;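 also: HeLa cells carrying an ER stress response element beta-lactamase reporter; % is scaled to controls: 0 for no effect and ±100 for the full control effect; nearly all actives have a fitted effect of over 50% in size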)
# Details: ESRE-bla HeLa viability, CellTiter-Glo luminescence, 5 h; at 61 µM (top of the series)
# Method in brief: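 ESRE-bla HeLa cells, 1,500 per well, seeded overnight then treated with compounds for 5 hr at 37 C. After the beta-lactamase read, viability in the same wells is measured by CellTiter-Glo luminescence after 30 min at room temperature.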
row,Structure (SMILES),"activity change, negative = cytotoxicity"
1,Oc1c(Cl)cc(Cl)cc1Cl,inactive: -0.757% and inactive: 0.561%
2,Cc1ccc2ccccc2c1C,inactive: 6.95%
3,Cc1ccc(O)cc1C,inactive: 2.39%
4,CC(C)(C)c1ccc(O)cc1,inactive: -15.8% and inactive: 1.25%

# Same assay, conditions: ESRE-bla HeLa viability, CellTiter-Glo luminescence, 5 h; at 78.8 µM (top of the series)
row,Structure (SMILES),"activity change, negative = cytotoxicity"
1,Cc1ccc2ccccc2c1C,inactive: 1.8%
2,Cc1ccc(O)cc1C,inactive: 4.31%
3,CC(C)(C)c1ccc(O)cc1,inactive: 0.171%

# Test: qHTS assay to identify small molecule antagonists of the retinoid-related orphan receptor gamma (ROR-gamma) signaling pathway - cell viability counter screen (AID 1159520); also: % is scaled to controls: 0 for no effect and ±100 for the full control effect; nearly all actives have a fitted effect of over 50% in size
# Details: Tet-on RORgamma CHO cells viability, ATP luminescence, 16 h; at 92.4 µM (top of the series)
# Method in brief: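 Tet-on ROR gamma CHO cells were given compounds for 2 hr, then doxycycline hyclate at 1 uM final, and incubated 16 hr at 37 C. Viability was measured as ATP content by CellTiter-Glo luminescence.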
row,Structure (SMILES),"activity, negative = cytotoxicity"
1,Oc1c(Cl)cc(Cl)cc1Cl,inactive: 0.65% and inactive: 3.76%
2,Cc1ccc2ccccc2c1C,inactive: -10.1% and inactive: 5.64%
3,Cc1ccc(O)cc1C,inactive: 3.04%
4,CC(C)(C)c1ccc(O)cc1,inactive: -0.68% and inactive: 2.49%
5,O=[N+]([O-])c1ccccc1Cl,inactive: 3.67%

# Test: qHTS assay to identify small molecule agonists of the AP-1 signaling pathway - cell viability counter screen (AID 1159525; calls by dose curve; also: nearly all actives have a fitted effect of over 55% in size)
# Details: ME-180 (cervical carcinoma) AP-1-bla cells viability, ATP luminescence, 5 h; at 76.8 µM (top of the series)
# Source text: National Center for Advancing Translational Sciences [NCATS]
# NIH Chemical Genomics Center [NCGC]
# U.S. Environmental Protection Agency [EPA]
# National Institutes of Environmental Health Sciences [NIEHS]
# National Toxicology Program [NTP]
# U.S. Food and Drug Administration [FDA]
# Activator protein-1 (AP-1), a transcription factor, plays an important role in tumor genesis by regulating genes involved in cell proliferation, differentiation, apoptosis, and angiogenesis. AP-1 activity is induced by a complex network of signaling pathways that involves extracellular signals, such as growth factors. The AP-1 protein complex formed from c-Fos and c-Jun binding to the AP-1 response element results in transcriptional activation of genes containing such elements within their promoter.
# Low molecular weight molecules have been discovered and developed to modulate various components of these signaling pathways, for example, MAP kinase inhibitors. However, many points of pathway modulation remain untested due to the lack of chemical probes making this signaling locus of general interest.
# Using a beta-lactamase reporter-gene under control of the AP-1 response element, a cell-based assay [CellSensor(TM) AP-1-bla ME-180 developed by Invitrogen Corp.] was used to measure EGF-induced signaling. The Tox21 10K library compounds were measured for their ability to positively modulate the action of EC50 EGF on reporter gene activity. Compounds were screened in a 15-pt titration series in 1536-well format. The cytotoxicity of the Tox21 compound library against this cell line was tested in parallel by measuring the intra cellular ATP content in the same wells.
# Tox21 Assay Protocol Summary:
# 2500 cells/5uL in Opti-MEM medium containing 0.5% dialyzed FBS, 0.1 mM NEAA, 1 mM sodium pyruvate and 10 mM HEPES was dispensed into 1536-well black wall/clear bottom plates using a Multidrop dispenser and cells were cultured at 37 degrees Celsius overnight. Next day 23 nL of compounds dissolved in DMSO, positive controls or DMSO were delivered to each well using a pin tool. The plates were incubated at 37 degrees Celsius for 5 hours. 1 uL of LiveBLAzerTM B/G FRET substrate (Solution A+B+C+D) was added to each well using a Flying Reagent Dispenser. After incubated at room temperature for 2.5 hours the plates were measured on an EnVision plate reader at Excitation 405nm, Emission1=460nm and Emission 2=530nm. The %Activity was determined from the ratio of 460nm/530nm.
# After the plates were read for Beta-Lactamase assay on Envision; 3 ul Cell Titer Glo (Promega) was added to measure the cytotoxicity and the plates were then incubated at RT in dark for 30 min. The luminescence was read on ViewLux (Perkin Elmer, Shelton, CT) using 6 sec exposure. ViewLux data was expressed as relative luminescence units.
# For primary data analysis, raw plate reads for each titration point were first normalized relative to […] EGF control (100%) and DMSO only wells (basal, 0%).
# For primary data analysis for viability assay, raw plate reads for each titration point were first normalized Tetra n-octyl ammonium bromide control (-100%) and DMSO (control, 100%).
row,Structure (SMILES),"viability change, negative = cytotoxic"
1,Oc1c(Cl)cc(Cl)cc1Cl,inactive: -8.62% and inactive: 7.83%
2,Cc1ccc2ccccc2c1C,inactive: -2.55% and inactive: 0.818%
3,Cc1ccc(O)cc1C,inactive: -3.99% and inactive: 2.76%
4,CC(C)(C)c1ccc(O)cc1,inactive: -15.4% and inactive: 1.19%
5,O=[N+]([O-])c1ccccc1Cl,inactive: -5.12%

# Test: qHTS assay to identify small molecule agonists of the RXR signaling pathway - cell viability counter screen (AID 1159529);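 also: HEK 293T cells carrying an RXR-alpha UAS beta-lactamase reporter; % is scaled to controls: 0 for no effect and ±100 for the full control effect; nearly all actives have a fitted effect of over 50% in size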
# Details: RXR-alpha-bla HEK293T viability, CellTiter-Glo, 16 h; at 76.8 µM (top of the series)
# Method in brief: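 Steps: seed RXR-alpha-UAS-bla HEK 293T cells in assay medium containing 2% charcoal-stripped FBS; incubate 5 hr; add compounds in DMSO; incubate 16 hr at 37 C; after the bla read, add CellTiter-Glo and read luminescence at 30 min.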
row,Structure (SMILES),"activity change, negative = cytotoxicity"
1,Oc1c(Cl)cc(Cl)cc1Cl,inactive: -26.2%
2,Cc1ccc2ccccc2c1C,inactive: 0.322%
3,Cc1ccc(O)cc1C,inactive: 18.6% and inactive: 0.921%
4,CC(C)(C)c1ccc(O)cc1,inactive: -14% and inactive: 3.21%
5,O=[N+]([O-])c1ccccc1Cl,inactive: 2.18%

# Test: qHTS assay to identify small molecule antagonists of the retinoid acid receptor (RAR) signaling pathway - cell viability counter screen (AID 1159551); also: % is scaled to controls: 0 for no effect and ±100 for the full control effect; nearly all actives have a fitted effect of over 35% in size
# Details: C3RL4 cells viability, ATP luminescence (CellTiter-Glo), 6 h; at 92.4 µM (top of the series)
# Method in brief: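 Following overnight attachment, C3RL4 reporter cells received DMSO-dissolved compounds and then retinol (1 uM final). Six hours later at 37 C, ATP content was measured by CellTiter-Glo luminescence.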
row,Structure (SMILES),"activity change, negative = cytotoxicity"
1,Oc1c(Cl)cc(Cl)cc1Cl,inactive: 1.75% and inactive: 6.48%
2,Cc1ccc2ccccc2c1C,inactive: 0.464% and inactive: 2.78%
3,Cc1ccc(O)cc1C,inactive: 2.32% and inactive: 0.269%
4,CC(C)(C)c1ccc(O)cc1,inactive: -0.927% and inactive: -1.99%
5,O=[N+]([O-])c1ccccc1Cl,inactive: -0.963%
